Laboratory results published in ChEMBL document CHEMBL4513148, “CO-ADD screening of Stellenbosch University (South Africa) compounds”.
This is one part of the list. Results with a measured potency or affinity are listed apart.

system: Pseudomonas aeruginosa; conditions: Concentration 32 ug.mL-1; ASSAY_TEST Inhibition of Bacterial Growth; detection method Absorption (OD600); MEDIA CAMHB; plate type 384well; NBS; CORNING #3640; time 18 hr

Structure (SMILES) | Inhibition [%]
CC(C)(CO)[C@H](O)C(=O)NCCCc1cn(C[C@H]2O[C@@H](n3ccc(N)nc3=O)[C@H](O)[C@@H]2O)nn1 | 41.93
CC(C)(C)C(O)C(=O)NCCC(=O)NCCc1ccccc1 (stereo not drawn) | 40.95
C#CCNC(=O)[C@H](O)C(C)(C)CO | 33.47
CC(CC(=O)NCCc1ccccc1)NC(=O)[C@H](O)C(C)(C)CO (stereo partly drawn) | 72.5
CC(C)(CO)[C@H](O)C(=O)NCCC(=O)NCc1cn(C[C@H]2O[C@@H](n3ccc(N)nc3=O)[C@H](O)[C@@H]2O)nn1 | 20.42
CCCCCCCNC(=S)CCNC(=O)[C@H](O)C(C)(C)CO | 22.82
CCCCCCCNC(=O)CCNC(=O)C(O)C(C)(C)C (stereo not drawn) | 49.91
CC(C)(CO)[C@H](O)C(=O)NCc1cn(C[C@H]2O[C@@H](n3ccc(N)nc3=O)[C@H](O)[C@@H]2O)nn1 | 37.59
CC(C)(CN)C(O)C(=O)NCCC(=O)NCCc1ccccc1 (stereo not drawn) | 51.6
CC(C)(CO)[C@H](O)C(=O)NCCc1cn(C[C@H]2O[C@@H](n3ccc(N)nc3=O)[C@H](O)[C@@H]2O)nn1 | 21.65
CC(C)(CO)[C@@H](O)C(=O)NCCC(=O)NNCc1ccccc1 | 44.24
CC(C)(CO)C(O)C(=O)NCCCOP(=O)(O)OCC1OC(n2ccc(N)nc2=O)C(O)C1O (stereo not drawn) | 20.74
CC(C)(CO)[C@@H](O)C(=O)NCCC(=S)NCCc1ccccc1 | 38.53
CC(C)(CO)[C@H](O)C(=O)NCCC(=O)OCc1cn(C[C@H]2O[C@@H](n3ccc(N)nc3=O)[C@H](O)[C@@H]2O)nn1 | 28.99
CC(C)(CO)[C@@H](O)C(=O)N/C=C/C(=O)NCCc1ccccc1 | 39.92
CCCCCCNNC(=O)CCNC(=O)[C@H](O)C(C)(C)CO | 23.59
CCCCCCCNS(=O)(=O)CCNC(=O)[C@H](O)C(C)(C)CO | 28.14
CC(C)(COP(=O)(O)O)[C@@H](O)C(=O)NCCC(=O)NCCc1ccccc1 | 35.19
